# In the supplement of paper PMC10849652:
# Protein sequences, listed by entry. Tags and fused reporters are not part of them. Lines headed by an entry give the natural chain unless they say otherwise; changes in a name come on top.
# UniProt P35222, whole entry, looked up: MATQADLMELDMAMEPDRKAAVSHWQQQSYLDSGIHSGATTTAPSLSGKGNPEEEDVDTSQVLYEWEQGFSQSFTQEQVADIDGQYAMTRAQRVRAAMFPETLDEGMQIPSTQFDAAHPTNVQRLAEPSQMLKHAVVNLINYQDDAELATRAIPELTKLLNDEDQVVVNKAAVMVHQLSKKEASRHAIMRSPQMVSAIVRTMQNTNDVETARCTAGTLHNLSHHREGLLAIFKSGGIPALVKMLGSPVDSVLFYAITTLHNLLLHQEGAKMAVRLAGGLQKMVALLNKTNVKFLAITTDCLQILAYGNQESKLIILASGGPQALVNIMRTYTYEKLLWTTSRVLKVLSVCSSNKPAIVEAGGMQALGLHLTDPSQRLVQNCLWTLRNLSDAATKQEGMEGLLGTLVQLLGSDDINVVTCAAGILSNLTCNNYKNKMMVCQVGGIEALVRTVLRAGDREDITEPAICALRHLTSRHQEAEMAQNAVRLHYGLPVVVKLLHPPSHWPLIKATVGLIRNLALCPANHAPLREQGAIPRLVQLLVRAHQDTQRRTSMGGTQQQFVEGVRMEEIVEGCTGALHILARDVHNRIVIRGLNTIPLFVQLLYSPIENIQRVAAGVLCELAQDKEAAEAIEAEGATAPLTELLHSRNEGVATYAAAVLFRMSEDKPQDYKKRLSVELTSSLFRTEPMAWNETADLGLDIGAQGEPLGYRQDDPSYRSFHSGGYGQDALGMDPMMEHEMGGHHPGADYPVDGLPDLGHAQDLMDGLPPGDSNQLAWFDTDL
# UniProt Q14247: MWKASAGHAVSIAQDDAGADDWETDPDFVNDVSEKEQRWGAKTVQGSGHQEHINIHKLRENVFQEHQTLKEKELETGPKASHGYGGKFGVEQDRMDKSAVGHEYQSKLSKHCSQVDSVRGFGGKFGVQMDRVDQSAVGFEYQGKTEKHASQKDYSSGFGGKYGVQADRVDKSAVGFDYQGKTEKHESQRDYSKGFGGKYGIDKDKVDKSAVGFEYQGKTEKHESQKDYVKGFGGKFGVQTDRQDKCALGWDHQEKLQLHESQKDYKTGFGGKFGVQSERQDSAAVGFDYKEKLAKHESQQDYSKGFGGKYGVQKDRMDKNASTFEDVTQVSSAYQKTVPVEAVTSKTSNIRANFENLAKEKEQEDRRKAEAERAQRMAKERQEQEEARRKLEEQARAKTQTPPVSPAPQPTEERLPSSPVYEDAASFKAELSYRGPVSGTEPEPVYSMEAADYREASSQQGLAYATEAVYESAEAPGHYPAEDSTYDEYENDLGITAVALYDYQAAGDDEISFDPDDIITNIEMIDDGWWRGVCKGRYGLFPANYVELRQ
# UniProt Q05048: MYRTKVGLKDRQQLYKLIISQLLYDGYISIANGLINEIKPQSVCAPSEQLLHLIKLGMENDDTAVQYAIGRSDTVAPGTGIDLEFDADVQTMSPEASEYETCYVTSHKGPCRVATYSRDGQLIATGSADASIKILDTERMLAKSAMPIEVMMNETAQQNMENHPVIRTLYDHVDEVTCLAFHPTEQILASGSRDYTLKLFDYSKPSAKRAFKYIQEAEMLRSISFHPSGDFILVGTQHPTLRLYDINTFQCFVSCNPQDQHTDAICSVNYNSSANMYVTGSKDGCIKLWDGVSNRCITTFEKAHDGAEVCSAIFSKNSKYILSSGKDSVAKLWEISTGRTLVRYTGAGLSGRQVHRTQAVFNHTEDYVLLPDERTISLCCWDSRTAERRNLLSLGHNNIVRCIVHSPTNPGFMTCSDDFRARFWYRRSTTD
# UniProt P48729: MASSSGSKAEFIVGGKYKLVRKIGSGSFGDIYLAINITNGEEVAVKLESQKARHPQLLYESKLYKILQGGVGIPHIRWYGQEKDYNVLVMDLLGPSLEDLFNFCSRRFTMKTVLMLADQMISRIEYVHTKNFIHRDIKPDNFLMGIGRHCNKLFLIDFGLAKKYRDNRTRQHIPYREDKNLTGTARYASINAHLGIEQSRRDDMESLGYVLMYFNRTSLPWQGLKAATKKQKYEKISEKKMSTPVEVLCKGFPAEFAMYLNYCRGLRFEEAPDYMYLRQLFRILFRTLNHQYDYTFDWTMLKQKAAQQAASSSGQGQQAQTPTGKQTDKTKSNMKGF
# UniProt O60716: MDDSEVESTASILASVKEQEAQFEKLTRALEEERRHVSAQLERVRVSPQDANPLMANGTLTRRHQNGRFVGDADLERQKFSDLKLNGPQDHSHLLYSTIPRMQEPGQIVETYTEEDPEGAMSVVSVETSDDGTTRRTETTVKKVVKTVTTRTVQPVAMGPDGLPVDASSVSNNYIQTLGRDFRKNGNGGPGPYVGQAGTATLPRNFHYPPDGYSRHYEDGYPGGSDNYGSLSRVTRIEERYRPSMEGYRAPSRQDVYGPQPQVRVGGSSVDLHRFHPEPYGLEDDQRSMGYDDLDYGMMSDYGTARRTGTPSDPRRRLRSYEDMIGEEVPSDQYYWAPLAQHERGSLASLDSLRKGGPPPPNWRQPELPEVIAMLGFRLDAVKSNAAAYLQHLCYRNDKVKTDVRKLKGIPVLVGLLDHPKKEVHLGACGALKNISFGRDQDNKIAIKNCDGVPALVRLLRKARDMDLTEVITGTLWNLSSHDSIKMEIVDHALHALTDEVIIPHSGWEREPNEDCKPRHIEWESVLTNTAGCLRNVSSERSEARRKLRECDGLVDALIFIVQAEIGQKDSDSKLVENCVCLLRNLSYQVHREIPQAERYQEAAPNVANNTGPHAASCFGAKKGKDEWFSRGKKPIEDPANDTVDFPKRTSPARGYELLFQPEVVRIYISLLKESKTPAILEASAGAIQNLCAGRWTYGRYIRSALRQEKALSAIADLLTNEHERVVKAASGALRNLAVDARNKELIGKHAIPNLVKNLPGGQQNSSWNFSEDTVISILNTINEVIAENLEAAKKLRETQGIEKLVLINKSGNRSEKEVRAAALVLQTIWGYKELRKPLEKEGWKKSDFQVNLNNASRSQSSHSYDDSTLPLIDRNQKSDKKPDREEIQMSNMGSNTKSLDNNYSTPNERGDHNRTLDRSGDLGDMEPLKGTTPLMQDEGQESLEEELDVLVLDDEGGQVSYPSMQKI
# UniProt P02511: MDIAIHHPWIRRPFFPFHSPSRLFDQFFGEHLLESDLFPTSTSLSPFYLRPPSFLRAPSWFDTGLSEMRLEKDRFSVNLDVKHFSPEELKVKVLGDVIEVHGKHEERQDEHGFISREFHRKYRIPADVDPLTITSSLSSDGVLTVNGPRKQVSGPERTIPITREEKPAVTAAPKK
# UniProt P49674: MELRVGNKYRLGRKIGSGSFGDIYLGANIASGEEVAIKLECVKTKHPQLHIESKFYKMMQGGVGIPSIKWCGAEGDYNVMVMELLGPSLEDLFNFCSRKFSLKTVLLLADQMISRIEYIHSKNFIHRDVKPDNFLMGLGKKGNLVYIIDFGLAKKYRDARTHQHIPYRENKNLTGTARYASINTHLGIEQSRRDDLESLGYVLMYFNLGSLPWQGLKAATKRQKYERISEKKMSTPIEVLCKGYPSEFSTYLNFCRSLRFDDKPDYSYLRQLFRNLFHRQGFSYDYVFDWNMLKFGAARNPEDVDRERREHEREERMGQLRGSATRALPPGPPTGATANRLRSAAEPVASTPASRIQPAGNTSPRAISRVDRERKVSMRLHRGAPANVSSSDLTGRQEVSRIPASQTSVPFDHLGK
# The other results are listed elsewhere or left out.
# Experiments:
# Assay in all cases: log2 fold change, soluble protein after heating vs DMSO (PISA); higher = thermal stabilisation; K562 lysate, 10 uM; active = over 0.2 and 3.5 SD of the protein, either way, in both replicates (recomputed)
# erlotinib = compound: C#Cc1cccc(Nc2ncnc3cc(OCCOC)c(OCCOC)cc23)c1 [erlotinib]
# Outline: (§1)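 Thermal stability, expressed as log-two fold change relative to solvent controls, is given from duplicates. Crude K562 extract in PBS pH 7.4 with 1 mM MgCl2, at 1 mg/mL protein, was treated with 10 μM compound for 30 min and heated in aliquots for 3 min across 48°C-58°C. After pooling, adjustment to 0.5% NP-40 at 4°C and centrifugation at 21,000xg for 90 min, supernatant protein was measured by TMTpro 16plex LC-MS/MS with channel sums equalised.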
# [1] = compound: C/C(=N\NC(=O)C1=CC(=CC=C1)S(=O)(=O)N2CCOCC2)/C3=C(C=CC(=C3)Cl)O
# Outline: as §1
# [2] = compound: C1=CC(=CC=C1C2=NC3=C(N2)C=C(C=C3)C(=O)N)OC4=CC=C(C=C4)Cl
# Outline: as §1
# [3] = compound: C1=CC2=C(C=CC(=C2)/C=C\3/C(=O)NC(=NCC4=CC=CS4)S3)N=C1
# Outline: as §1
# [4] = compound: C1=CC2=NC=CN=C2C=C1/C=C/3\C(=O)NC(=O)S3
# Outline: as §1
# [5] = compound: C1=CC=C(C=C1)C2=NC(=C(N2)C3=CC=NC=C3)C4=CC(=C(C=C4)Cl)O
# Outline: as §1
# [6] = compound: C1=CC=C2C(=C1)C3=NNC4=CC=CC(=C43)C2=O
# Outline: as §1
# [7] = compound: C1CCN(C1)C(=O)NC2=CC=CC(=C2)NC3=NC=C(C(=N3)NCCC4=CN=CN4)Br
# Outline: as §1
# [8] = compound: C1CN(CCC1(CC2=CC=C(C=C2)Cl)N)C3=NC=NC4=C3C=CN4
# Outline: as §1
# IRAK-1-4 Inhibitor I = compound: C1COCCN1CCN2C3=CC=CC=C3N=C2NC(=O)C4=CC(=CC=C4)[N+](=O)[O-] [IRAK-1-4 Inhibitor I]
# Outline: as §1
# ibrutinib = compound: C=CC(=O)N1CCC[C@@H](n2nc(-c3ccc(Oc4ccccc4)cc3)c3c(N)ncnc32)C1 [ibrutinib]
# Outline: as §1
# [9] = compound: CC(=O)c1cnc2ccc(-c3cc(Cl)c(O)c(Cl)c3)nc2c1N[C@H]1CC[C@H](CN(C)C)CC1
# Outline: as §1
# ralimetinib = compound: CC(C)(C)Cn1c(N)nc2ccc(-c3[nH]c(C(C)(C)C)nc3-c3ccc(F)cc3)nc21 [ralimetinib]
# Outline: as §1
# [10] = compound: CC(C)(O)CC(=O)NCCn1ccc2ncnc(Nc3ccc(Oc4cccc(C(F)(F)F)c4)c(Cl)c3)c21
# Outline: as §1
# [11] = compound: CC(C)C1=C2N=C(C=C(N2N=C1)NCC3=CC=CC=C3)NCCCCCCN
# Outline: as §1
# [12] = compound: CC1=C(C(CC(=O)N1)C2=CC=C(C=C2)C(F)(F)F)C(=O)NC3=C(C=C4C(=C3)C=NN4)F
# Outline: as §1
# [13] = compound: CC1=C(C2=C(C=C1)C(=O)C3=CC=CC=C3N2CCCN)C
# Outline: as §1
# [14] = compound: CC1=C(C=C(C=C1)NC(=O)C2=CC(=CC=C2)C(C)(C)C#N)NC3=CC4=C(C=C3)N=CN(C4=O)C
# Outline: as §1
# [15] = compound: CC1=C(C=C(C=C1)NC(=O)C2=CC(=CC=C2)N(C)C)NC(=O)C3=CC=C(C=C3)O
# Outline: as §1
# [16] = compound: CC1=CC=C(C=C1)SC2=C3C=C(SC3=CN=C2)C(=O)N
# Outline: as §1
Target,log2 fold change (erlotinib),log2 fold change [1],log2 fold change [2],log2 fold change [3],log2 fold change [4],log2 fold change [5],log2 fold change [6],log2 fold change [7],log2 fold change [8],log2 fold change (IRAK-1-4 Inhibitor I),log2 fold change (ibrutinib),log2 fold change [9],log2 fold change (ralimetinib),log2 fold change [10],log2 fold change [11],log2 fold change [12],log2 fold change [13],log2 fold change [14],log2 fold change [15],log2 fold change [16]
CTNNB1 (UniProt P35222),inactive: -0.078,inactive: 0.063,inactive: 0.027,inactive: 0.085,inactive: 0.095,inactive: -0.016,inactive: 0.049,inactive: -0.065,inactive: -0.027,inactive: -0.006,inactive: -0.05,inactive: 0.036,inactive: 0.018,inactive: 0.023,inactive: -0.044,inactive: 0.024,inactive: -0.074,inactive: 0.034,inactive: -0.001,inactive: -0.018
CTTN isoform 2 (UniProt Q14247),inactive: -0.03,inactive: 0.026,inactive: 0.007,inactive: 0.02,inactive: -0.018,inactive: 0.037,inactive: 0.026,inactive: 0.003,inactive: 0.002,inactive: 0.016,inactive: 0.039,inactive: -0.004,inactive: 0.011,inactive: 0.021,inactive: -0.024,inactive: -0.005,inactive: 0,inactive: -0.011,inactive: 0.01,inactive: -0.008
CSTF1 (UniProt Q05048),inactive: -0.001,inactive: 0.013,inactive: -0.02,inactive: 0.013,inactive: -0.002,inactive: -0.024,inactive: 0.007,inactive: 0.001,inactive: 0.012,inactive: -0.014,inactive: 0.101,inactive: 0.003,inactive: 0.03,inactive: -0.005,inactive: -0.015,inactive: -0.005,inactive: 0.028,inactive: 0.022,inactive: -0.015,inactive: -0.002
CSNK1A1 (UniProt P48729),inactive: -0.027,inactive: -0.106,inactive: 0.093,inactive: 0.028,inactive: 0.013,inactive: 0.217,active: 0.406,inactive: -0.082,inactive: -0.032,inactive: -0.038,inactive: -0.098,inactive: 0.148,inactive: 0.088,inactive: -0.002,inactive: -0.035,inactive: -0.019,inactive: -0.002,inactive: -0.029,inactive: 0,inactive: 0.003
CXorf56 (UniProt Q9H5V9),inactive: -0.004,inactive: 0.033,inactive: 0.026,inactive: -0.037,inactive: -0.048,inactive: 0.034,inactive: -0.004,inactive: -0.02,inactive: 0.01,inactive: 0.025,inactive: 0.002,inactive: -0.024,inactive: 0.012,inactive: 0.003,inactive: 0.007,inactive: 0.026,inactive: -0.054,inactive: 0.014,inactive: -0.005,inactive: 0.008
CTNND1 isoform 3 (UniProt O60716),inactive: -0.002,inactive: -0.039,inactive: -0.024,inactive: -0.045,inactive: 0.003,inactive: 0.087,inactive: -0.093,inactive: 0.009,inactive: 0.022,inactive: 0.004,inactive: 0.01,inactive: 0.001,inactive: -0.058,inactive: -0.028,inactive: 0,inactive: 0.006,inactive: -0.036,inactive: -0.016,inactive: 0.032,inactive: -0.025
CRYAB (UniProt P02511),inactive: 0.034,inactive: 0.018,inactive: 0.028,inactive: 0.014,inactive: 0.032,inactive: 0.094,inactive: 0.048,inactive: -0.088,inactive: 0.102,inactive: 0.114,inactive: -0.084,inactive: 0.029,inactive: -0.103,inactive: -0.258,inactive: 0.114,inactive: -0.089,inactive: -0.217,inactive: 0.077,inactive: 0.032,inactive: -0.06
CSNK1E (UniProt P49674),inactive: -0.003,inactive: 0.006,inactive: 0.161,inactive: 0.047,inactive: 0.018,active: 0.297,active: 0.345,inactive: -0.056,inactive: 0.009,inactive: -0.032,inactive: 0.029,inactive: 0.287,inactive: 0.208,inactive: -0.026,inactive: -0.04,inactive: -0.012,inactive: -0.064,inactive: -0.049,inactive: -0.028,inactive: -0.039
